Reference: PubChem BioAssay AID504444 (National Center for Advancing Translational Sciences (NCATS), 2011)
About 7,500 (2.1%) of roughly 360,000 compounds were called active. The inconclusive results got no clear call from the source; some entries with a clear call stand among them for comparison. The call rests on the fitted dose curve; in most records, active means well fitted inhibition curve with a large enough effect; inconclusive means small, poorly fitted or top-dose-only effect, or effect the other way; inactive means flat fitted curve, though single readings scatter. Potencies of inconclusive entries are doubtful fits and often do not repeat.

Assay: Nrf2 qHTS screen for inhibitors; further: nearly all actives have a fitted effect of over 60% in size
Settings: A549 ARE-Fluc reporter, luciferase luminescence, 18-24 h; series mostly up to 46 µM
How it was run: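 Cells were seeded and rested 2 h, then exposed to compounds for 18-24 h. CellTiter-Fluor was read first as a viability measure. BugLite was added 15 min before the final luminescent read of ARE-luciferase activity in A549 cells.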
Potency means the concentration at half of the fitted maximal effect.

Row | Structure (SMILES) | Potency
1 | Cc1cc(=O)oc2cc(OCC(=O)NCCCN3CCOCC3)ccc12 | inactive
2 | Cc1cc(C)c(-n2nnnc2SCC(=O)c2cc3ccccc3o2)c(C)c1 | inconclusive: 16.4 µM [falling, partial curve, poor fit]
3 | Cc1ccc(Cl)cc1NC(=O)c1cc(CN2CCCC2)on1 | inconclusive: 29.1 µM [activator, single point]
4 | O=[N+]([O-])c1ccc(-c2ccc(/C=N/n3cnnc3)o2)c(Br)c1 | inconclusive: 14.6 µM [falling, single point]
5 | COc1ccc(CCNC(=O)CCc2cn(Cc3ccc(F)cc3)c3ccccc23)cc1OC | inconclusive: 29.1 µM [falling, single point]
6 | CC(C)Oc1ccccc1C1CC(=O)Nc2cc3c(cc21)OCCO3 (stereo not given) | active: 8.2 µM
7 | O=C(CSc1nnc(-c2ccc(O)cc2)n1-c1ccccc1)CC(=O)Nc1ccccc1 | inconclusive: 6.51 µM [activator, partial curve]
8 | Cn1c(NC(=O)c2cccnc2)nc2ccccc21 | inconclusive: 13 µM [activator, partial curve]
9 | O=C(c1ccc2c(c1)N(Cc1cccc(Cl)c1)C(=O)c1ccccc1S2(=O)=O)N1CCN(c2ccccn2)CC1 | inconclusive: 23.1 µM [activator, partial curve]
10 | COc1ccc(C(=O)C2CCN(C(=O)c3ccc(OC)cc3)CC2)cc1 | active: 23.1 µM
11 | O=C(/C=C/Nc1cccc(F)c1)c1ccco1 | inconclusive: 7.31 µM [activator, partial curve]
12 | COc1ccc(OC)c(CNc2ncnc3c2nc2n3CCCC2)c1 | inconclusive: 29.1 µM [falling, single point]
13 | O=C(CNc1ccc(Br)cc1)c1ccc(O)cc1 | inconclusive: 29.1 µM [activator, single point]
14 | CC(C)NC(=O)Nc1cccc2c1O[C@H](CN(C)C(=O)Nc1ccc(C(F)(F)F)cc1)[C@@H](C)CN([C@H](C)CO)C2=O | inactive
15 | CCOC(=O)C1CCN(C(=O)/C=C/c2ccc3c(c2)OCO3)CC1 | inconclusive: 25.9 µM [activator, single point]
16 | CC1C(=O)N(Cc2ccccc2F)c2ccccc2N1C(=O)c1c(F)cccc1F (stereo not given) | inconclusive: 29.1 µM [falling, single point]
17 | Cc1nc2nc(-c3ccccc3)[nH]n2c(=O)c1C | inconclusive: 6.51 µM [activator, full curve]
18 | COC(=O)Cc1c(C)c2ccc(OC(C)C)cc2oc1=O | inactive
19 | O=c1c2ccccc2sn1-c1nccs1 | inconclusive: 4.11 µM [activator, full curve]
20 | O=C(CN1CCN(C(=O)c2ccc(OCc3cn4ccccc4n3)cc2)CC1)Nc1cccc(F)c1 | inconclusive: 16.4 µM [falling, partial curve]
21 | O=C(Nc1ccncc1)Nc1ccncc1 | inconclusive: 20.6 µM [activator, partial curve]
22 | COC(=O)CSc1nnc(CNc2ccc(Cl)cc2)n1Cc1ccccc1 | inconclusive: 2.59 µM [falling, partial curve, poor fit]

Row | Structure (SMILES) | Potency
23 | CCCCSC(=O)Nc1ccccc1 | inconclusive: 18.4 µM [activator, partial curve, poor fit]
24 | Cc1cccc(NC(=O)c2ccc(Cl)c(S(=O)(=O)N3CCc4ccccc43)c2)n1 | inconclusive: 18.4 µM [falling, single point]
25 | CSCCC(NS(=O)(=O)c1ccc(Cl)cc1)C(=O)OCC(=O)c1c(C)[nH]c2ccccc12 (stereo not given) | active: 18.4 µM
26 | Cc1ccccc1C(=O)Nc1nnc(S(=O)(=O)N(C)c2ccc(Cl)cc2)s1 | inconclusive: 29.1 µM [activator, single point]
27 | Cc1ccc(NC(=O)Nc2cccc([N+](=O)[O-])c2)cc1F | inconclusive: 29.1 µM [falling, single point]
28 | CC1CCN(S(=O)(=O)c2ccc(Cl)cc2Br)CC1 | inconclusive: 5.17 µM [falling, partial curve, poor fit]
29 | Cc1ccc(-c2cnn3c(N4CCOCC4)cc(C)nc23)cc1 | inconclusive: 0.651 µM [activator, full curve]
30 | NC1=NC2=C(CCCC2)C2(CCCCC2)S1 | inconclusive: 0.058 µM [falling, full curve, poor fit]
31 | COc1cccc(CCc2nnc(CCC(=O)N3CCN(Cc4ccccn4)CC3)o2)c1 | inactive
32 | COc1ccc(C)c2sc(N(CCCN(C)C)C(=O)c3ccc(S(=O)(=O)N4CCc5ccccc5C4)cc3)nc12 | inconclusive: 29.1 µM [falling, single point]
33 | C/C(=N\NC(=O)c1ccc2c(c1)OCO2)c1cccnc1 | inconclusive: 2.91 µM [activator, partial curve]
34 | COc1cccc(Nc2ncnc3sc(C)cc23)c1 | inconclusive: 13 µM [activator, partial curve, poor fit]
35 | CN(C)c1ccc(C(C(=O)NCC2CCCO2)N(C(=O)c2snc(C(N)=O)c2N)c2ccccc2)cc1 (stereo not given) | inactive
36 | O=C(c1cnn(-c2ccccc2)c1)c1cc(F)ccc1O | inconclusive: 29.1 µM [activator, single point]
37 | CC(C)C(NC(=O)c1c(F)cccc1F)C(=O)N1CCN(S(=O)(=O)c2ccc(F)cc2)CC1 (stereo not given) | inactive
38 | CC(C)(C)OC(=O)N1CCC(C(=O)Nc2cccc(C(=O)N3CCOCC3)c2)CC1 | inactive
39 | O=C(Nc1nnc(C2CC2)s1)C1CCCCN1S(=O)(=O)c1ccccc1 (stereo not given) | inconclusive: 29.1 µM [falling, single point]
40 | COc1ccc(CCN(C)C(=O)c2cccc(S(=O)(=O)NCc3ccccc3)c2)cc1OC | inconclusive: 20.6 µM [falling, partial curve, poor fit]
41 | CCn1nc(C(=O)Nc2cccc(S(=O)(=O)N3CCCC3)c2)c2ccccc2c1=O | inconclusive: 10.3 µM [falling, single point]
42 | CC[C@H](C)[C@H](NC(=O)c1ccc(Cl)cc1)C(=O)OCC(=O)c1ccc2c(c1)NC(=O)CO2 | inconclusive: 20.6 µM [falling, single point]
43 | Cc1ccc(CNC(=O)c2cc(S(=O)(=O)N3CCCCC3)ccc2N2CCOCC2)cc1 | active: 20.6 µM
44 | COc1ccc(S(=O)(=O)N2CCN(CCOc3ccccc3Cl)CC2)cc1OC | inconclusive: 4.61 µM [falling, full curve]

Given as tab-separated lines: entries from further up
Row	Structure (SMILES)	Potency
34	COc1cccc(Nc2ncnc3sc(C)cc23)c1	inconclusive: 13 µM [activator, partial curve, poor fit]
35	CN(C)c1ccc(C(C(=O)NCC2CCCO2)N(C(=O)c2snc(C(N)=O)c2N)c2ccccc2)cc1 (stereo not given)	inactive

From no. 24 up to 25, copied from above:
Row | Structure (SMILES) | Potency
24 | Cc1cccc(NC(=O)c2ccc(Cl)c(S(=O)(=O)N3CCc4ccccc43)c2)n1 | inconclusive: 18.4 µM [falling, single point]
25 | CSCCC(NS(=O)(=O)c1ccc(Cl)cc1)C(=O)OCC(=O)c1c(C)[nH]c2ccccc12 (stereo not given) | active: 18.4 µM

Next structures:

Row | Structure (SMILES) | Potency
45 | CCOC(=O)c1[nH]c2c(c1-c1ccc(OC)cc1)C(=O)CC(c1ccc(OC)c(OC)c1)C2 (stereo not given) | inconclusive: 29.1 µM [falling, single point]
46 | Cc1ccc2c(CNCc3ccco3)cc(=O)oc2c1 | inconclusive: 23.1 µM [activator, single point]
47 | O=C(CCCc1cccs1)N1CCN(S(=O)(=O)c2ccccc2Br)CC1 | inconclusive: 2.31 µM [falling, single point]
48 | O=C(c1ccc2n[nH]nc2c1)N1CCN(c2ccc(C(F)(F)F)cn2)CC1 | active: 14.6 µM
49 | CCN(CC)CCn1c(NC(=O)c2ccc(C)cc2)nc2ccccc21 | inconclusive: 3.66 µM [activator, full curve, poor fit]
50 | O=C(c1ccc2c(c1)N(Cc1ccc(Cl)cc1)C(=O)c1ccccc1S2(=O)=O)N1CCN(Cc2ccccc2)CC1 | inconclusive: 23.1 µM [falling, single point]
51 | Cc1ccc(NC(=O)CSCC(=O)N2CCN(Cc3ccc4c(c3)OCO4)CC2)cc1 | inactive
52 | COC(=O)c1ccc(NC(=O)Nc2ccccc2F)cc1 | inconclusive: 14.6 µM [activator, partial curve, poor fit]
53 | COc1ccc(OC)c(CNC(=O)C2CCC(=O)N(CCCN3CCCC3=O)C2)c1 (stereo not given) | inconclusive: 2.59 µM [falling, partial curve, poor fit]
54 | COc1ccc(/C=C2\CCC/C(=C\C=N\N(C)C)C2=O)cc1 | inactive
55 | NS(=O)(=O)c1ccc(NC2=CC(c3ccc([N+](=O)[O-])cc3)N(c3ccc(S(N)(=O)=O)cc3)C2=O)cc1 (stereo not given) | inactive
56 | O=S(=O)(c1ccc(Br)cc1)c1nnn2c1nc(NCCc1ccccc1)c1sccc12 | inconclusive: 18.4 µM [falling, single point]
57 | Cn1c(/C=N/Nc2nc3ccccc3[nH]2)nc2ccccc21 | inconclusive: 18.4 µM [activator, partial curve]
58 | Cc1nc2ccc(S(=O)(=O)NC(C(=O)N3CCN(c4cccc(Cl)c4)CC3)C(C)C)cc2s1 (stereo not given) | inactive
59 | Fc1cccc2sc(Nc3nc4cc5c(cc4s3)OCO5)nc12 | inconclusive: 11.6 µM [activator, partial curve]
60 | Cc1ccc(-c2onc(C)c2C)cc1S(=O)(=O)Nc1cccc(Cl)c1C | inconclusive: 29.1 µM [falling, single point]
61 | CC12CCC=CC1=C(C=O)C1C2CCC2(C)C(O)CCC12 (stereo not given) | inactive
62 | COC(=O)Oc1ccc(/C=N/NS(=O)(=O)c2ccccc2)cc1OC | inconclusive: 23.1 µM [falling, single point]
63 | CC(=O)Nc1ccc(NC(=O)C(c2ccccc2)N2Cc3ccccc3C2=O)cc1 (stereo not given) | inconclusive: 29.1 µM [activator, single point]
64 | O=C(Oc1ccc(NC2=NS(=O)(=O)c3ccccc32)cc1)c1cccnc1 | inconclusive: 5.8 µM [activator, partial curve, poor fit]
65 | Cc1ccc(C(C)C)c(OCC(=O)N/N=C/c2cccn2C)c1 | inconclusive: 14.6 µM [falling, partial curve]
